The source of these data is PubChem BioAssay AID493014 (National Center for Advancing Translational Sciences (NCATS), 2011).

The other results are listed elsewhere or left out. These are further read-outs of the screen, such as a control signal, another cell line or another target. No call is given for them. Compounds called inactive in the main read-out are mostly missing here. Words in brackets tell the shape of the fitted curve; partial curves, single points and poor fits give uncertain potencies.

The nature of the test: qHTS Assay to Find Inhibitors of Chronic Active B-Cell Receptor Signaling. As to conditions: ABC-DLBCL IkBa-CBG/CBR reporter, luminescence ratio (green luciferase fused to IkBa over red control in TMD8 lymphoma cells), 4 h. In outline:
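TMD8 ABC-DLBCL cells carrying doxycycline-inducible green luciferase fused to IkappaBalpha plus unfused red luciferase were exposed to compounds (up to 46 uM) for 4 hrs at 37C. Activity came from the overlap-corrected green/red luminescence ratio.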

Setting [1] is: measured here: CBR red luminescence, cell number.
[2] abbreviates: measured here: IkBa-CBG green luminescence.

Turning to `NS(=O)(=O)c1ccc(NC(=S)NNC(=O)c2cccs2)cc1`, the AC50 – broadly, the concentration at which the activity in the assay is half-maximal – under setting [1] was 11.2 µM [falling, partial curve].

On to `Cc1cc(C)n2c(Nc3ccc4c(c3)OCCO4)c(-c3ccco3)nc2n1`, for which the AC50 under setting [1] is 20.6 µM [rising, single point].

As to `Cc1cccc(NC(=O)CN(C)S(=O)(=O)c2cccc3cccnc23)c1C`, the AC50 under setting [1] is 0.112 µM [rising, full curve, poor fit].

On to `Cc1ccc2c(c1)[C@H]1[C@H](CO2)[C@H](c2ccccc2)[C@]2(C)C(=O)Nc3cc(F)c(F)cc3C(=O)N12`, for which, under setting [1], the AC50 is 2.06 µM [falling, full curve].

Take `Nc1nnnn1/N=C/c1cc([N+](=O)[O-])ccc1O`: the AC50 under setting [1] was 20 µM [falling, single point].

Regarding `CCOc1cc(/C=N/Nc2cc(C)nc3ccc(C)cc23)ccc1O`, under setting [1], the AC50 was 35.5 µM [falling, single point].

In the case of `Cc1ccc(NC(=O)NNC(=O)c2cc3ccccc3cc2O)c(C)c1`, the AC50 under setting [1] is 35.5 µM [rising, single point].

Consider `COc1ccc(-c2nnc(Nc3nc4c(OC)cccc4s3)o2)cc1`, for which, under setting [1], the AC50 was 1.26 µM [falling, full curve].

With `CN(C)CCCn1c(N)c(C#N)c2nc3ccccc3nc21`, under setting [1], the AC50 is 14.1 µM [falling, partial curve].

For `CN(c1cccc(NC(=O)c2ccc(C(C)(C)C)cc2)c1)S(C)(=O)=O`, the AC50 under setting [1] was 11.2 µM [falling, partial curve].

With `O=C(/C=C/c1ccccc1)Nc1cccnc1Cl`, the AC50 under setting [1] is 14.1 µM [falling, partial curve].

Regarding `N=c1n(CCO)c2ccccc2n1CCOc1ccc(Cl)cc1Cl`, under setting [1], the AC50 is 12.6 µM [falling, partial curve].

As for `CCn1c2ccccc2c2cc(/C=N/NC(=O)c3ccc(O)cc3)ccc21`, under setting [1], the AC50 is 2.06 µM [falling, full curve].

As for `COc1cc2c(cc1OC)CN(C(=O)CCCOc1ccc(Cl)cc1Cl)CC2`, the AC50 under setting [1] is 29.1 µM [falling, single point].

For the compound `Nc1cccn2c(-c3ccc(Cl)cc3)cnc12`, the AC50 under setting [1] was 35.5 µM [falling, single point].

Regarding `CSc1nc(N)nc(SC2C=CCCC2)c1C#N` (centres undefined), the AC50 under setting [1] is 10.3 µM [rising, partial curve, poor fit].

Take `NC(=O)c1sc2nc(-c3ccco3)ccc2c1N`: the AC50 under setting [1] was 22.4 µM [falling, single point].

Turning to `O=C(CNC(=O)c1ccccc1)OCc1nnc(-c2ccccc2)o1`, the AC50 under setting [1] was 5.8 µM [rising, partial curve, poor fit].

For the compound `CCCc1cc(N2CCOCC2)n2ncc(-c3ccccc3)c2n1`, under setting [1], the AC50 is 10 µM [rising, partial curve, poor fit].

On to `COc1ccc(CC(=O)Nc2nnc(-c3cccc([N+](=O)[O-])c3)s2)cc1`, for which, under setting [1], the AC50 was 0.116 µM [rising, full curve, poor fit].

In the case of `CCOC(=O)c1sc(-c2ccc(Br)cc2)cc1N`, the AC50 under setting [1] is 0.112 µM [rising, full curve, poor fit].

For `CC(=O)NNc1ncnc2c1cnn2-c1ccc(C)c(C)c1`, under setting [1], the AC50 was 10 µM [falling, partial curve].

Turning to `C/C(CC(=O)NC(C)(C)C)=N\NC(=O)c1ccco1`, under setting [1], the AC50 is 10.3 µM [falling, single point].

For `CCCCNc1c(-c2ccc(SC(C)CC)cc2)nc2cnccn12` (centres undefined), the AC50 under setting [1] is 3.26 µM [rising, partial curve].

Turning to `C/C(=N\NC(=S)NC(C)C)c1ccco1`, the AC50 is, setting by setting: under setting [1], 22.4 µM [falling, single point]; under setting [2], 35.5 µM [falling, single point].

Turning to `CC(C(O)c1ccc(O)cc1)N1CCC(Cc2ccccc2)CC1` (centres undefined), the AC50 under setting [1] was 35.5 µM [falling, single point].

Regarding `O=C(CCCN1C(=O)/C(=C\c2cccs2)SC1=S)Nc1ccc(O)cc1`, the AC50 is, setting by setting: under setting [1], 15.8 µM [falling, single point]; under setting [2], 11.2 µM [falling, partial curve, poor fit].

On to `CCC(C(=O)NC1CCCCC1)N(C(=O)c1snc(C(N)=O)c1N)c1ccc(OC)cc1OC` (centres undefined), for which the AC50 under setting [1] was 3.55 µM [rising, single point].

In the case of `CC1Cc2ccccc2N1C(=O)Cc1cccs1` (centres undefined), the AC50 under setting [1] was 0.231 µM [rising, full curve, poor fit].

For `Fc1ccc(OCc2nc(-c3cccs3)no2)cc1`, the AC50 under setting [1] was 35.5 µM [falling, single point].

In the case of `COc1ccc2c(c1)CCC/C2=N\NC(=O)c1ccoc1C`, the AC50 under setting [1] is 18.4 µM [falling, partial curve].

For `COc1ccccc1CN1C[C@@H]2C[C@@H](c3[nH]c4ccc(C)cc4c3C)N3CCC[C@@]23C1=O`, the AC50 under setting [1] was 35.5 µM [falling, single point].

With `CCc1nc(Nc2ccc(N3CCN(C(C)=O)CC3)cc2)c2oc3ccccc3c2n1`, the AC50 under setting [1] was 2 µM [falling, partial curve, poor fit].

Turning to `COc1ccc(C2=CC(=O)C[C@H](c3ccc(F)cc3)C2)c(OC)c1`, the AC50 under setting [1] was 29.1 µM [falling, single point].

For `O=C(c1ccco1)N1CCC(c2ccccc2)C1` (centres undefined), the AC50 under setting [1] was 15.8 µM [falling, single point].

In the case of `C=CCC(CC=C)(NC(=O)c1ccccc1C(=O)O)c1ccccc1`, the AC50 under setting [1] was 6.51 µM [rising, single point].

For the compound `O=C(O)CCSc1ncnc2sc(-c3ccccc3)cc12`, the AC50 under setting [1] is 2.82 µM [falling, full curve].

Consider `CCC(c1c(C)n(C)n(-c2ccccc2)c1=O)c1c(C)n(C)n(-c2ccccc2)c1=O`, for which the AC50 under setting [1] is 3.26 µM [rising, partial curve, poor fit].

On to `COC(=O)c1ccc(CSc2nc3c(c(=O)n2-c2ccc(F)cc2)SCC3)o1`, for which the AC50 under setting [1] was 11.6 µM [rising, partial curve, poor fit].

Take `Cc1nc(NS(=O)(=O)c2ccccc2)sc1C(=O)NN`: the AC50 under setting [1] is 2 µM [falling, partial curve, poor fit].

Consider `COc1ccc(C(=O)Nc2ccc3c(c2)nc(CCNC(C)=O)n3C)cc1`, for which the AC50 under setting [1] is 13 µM [falling, partial curve, poor fit].

For `O=C(N/N=C/c1c[nH]c2ccccc12)c1cccc(O)c1`, under setting [1], the AC50 was 14.1 µM [falling, partial curve, poor fit].
